Experimental data from patent US20250345370A1, “MICROBIAL LIBERATION OF N-METHYLSEROTONIN FROM ORANGE FIBER” (Washington University, priority 2022, published 2025).
Further values from the same series stand in other lists.

Tested on: colon gene expression
Assay: RNA-Seq of colonic tissue of germ-free mice treated with 50 mg/kg/d N-methylserotonin
Format: in vivo, germ-free C57BL/6J mice

Compound: CNCCc1c[nH]c2ccc(O)cc12 [N-methylserotonin]
- log2 fold-change (colon, gene Smtn): 0.31
- log2 fold-change (colon, gene Snord17): −0.67
- log2 fold-change (colon, gene Snph): 0.59
- log2 fold-change (colon, gene Sowahc): −0.42
- log2 fold-change (colon, gene Sp3): −0.25
- log2 fold-change (colon, gene Sprr2a3): −0.89
- log2 fold-change (colon, gene Spryd3): 0.38
- log2 fold-change (colon, gene Sptlc2): −0.30
- log2 fold-change (colon, gene Srgap3): 0.41
- log2 fold-change (colon, gene Ssc5d): 0.94
- log2 fold-change (colon, gene St3gal6): −0.82
- log2 fold-change (colon, gene St8sia5): −1.14
- log2 fold-change (colon, gene Steap4): −0.63
- log2 fold-change (colon, gene Stom): −0.64
- log2 fold-change (colon, gene Styk1): −0.33
- log2 fold-change (colon, gene Sult1b1): −0.53
- log2 fold-change (colon, gene Sval1): −0.90
- log2 fold-change (colon, gene Svil): 0.29
- log2 fold-change (colon, gene Svs1): 8.01
- log2 fold-change (colon, gene Svs2): 8.79
- log2 fold-change (colon, gene Svs3a): 7.68
- log2 fold-change (colon, gene Svs3b): 8.03
- log2 fold-change (colon, gene Svs4): 8.34
- log2 fold-change (colon, gene Svs5): 7.81
- log2 fold-change (colon, gene Svs6): 7.66
- log2 fold-change (colon, gene Syngr1): 0.50
- log2 fold-change (colon, gene Synj2bp): −0.39
- log2 fold-change (colon, gene Tank): −0.46
- log2 fold-change (colon, gene Tax1bp1): −0.24
- log2 fold-change (colon, gene Tbc1d16): 0.37
- log2 fold-change (colon, gene Tbc1d30): 0.39
- log2 fold-change (colon, gene Tbx3): 1.10
- log2 fold-change (colon, gene Tcaf3): 11.09
- log2 fold-change (colon, gene Tcf23): 0.69
- log2 fold-change (colon, gene Tecpr1): 0.34
- log2 fold-change (colon, gene Tef): 0.72
- log2 fold-change (colon, gene Tent5a): −0.43
- log2 fold-change (colon, gene Tff3): −0.39
- log2 fold-change (colon, gene Tfrc): −0.40
- log2 fold-change (colon, gene Tgfb1i1): 0.54
- log2 fold-change (colon, gene Tgm3): −1.21
- log2 fold-change (colon, gene Thbs4): −0.62
- log2 fold-change (colon, gene Tinag): −0.53
- log2 fold-change (colon, gene Tle3): 0.34
- log2 fold-change (colon, gene Tlr1): −0.34
- log2 fold-change (colon, gene Tlr4): −0.58
- log2 fold-change (colon, gene Tm4sf20): −0.54
- log2 fold-change (colon, gene Tm6sf2): −0.61
- log2 fold-change (colon, gene Tmem37): −0.93
- log2 fold-change (colon, gene Tmem45b): −0.53
- log2 fold-change (colon, gene Tmem168): −0.48
- log2 fold-change (colon, gene Tmem236): −0.43
- log2 fold-change (colon, gene Tnip3): −1.18
- log2 fold-change (colon, gene Tnk2): 0.56
- log2 fold-change (colon, gene Tnks1bp1): 0.36
- log2 fold-change (colon, gene Tnni1): −1.14
- log2 fold-change (colon, gene Tns2): 0.57
- log2 fold-change (colon, gene Tnxb): 0.50
- log2 fold-change (colon, gene Top2a): −0.42
- log2 fold-change (colon, gene Tpd52l1): 1.19
- log2 fold-change (colon, gene Tpm2): 0.30
- log2 fold-change (colon, gene Trf): −0.35
- log2 fold-change (colon, gene Trmt1l): −0.43
- log2 fold-change (colon, gene Trpm6): −0.72
- log2 fold-change (colon, gene Tsku): 0.48
- log2 fold-change (colon, gene Tspan1): −0.41
- log2 fold-change (colon, gene Tspan3): −0.37
- log2 fold-change (colon, gene Ttc9c): −0.31
- log2 fold-change (colon, gene Ttll10): 0.60
- log2 fold-change (colon, gene Tubb2a): 0.36
- log2 fold-change (colon, gene Tubgcp4): −0.36
- log2 fold-change (colon, gene Tyms): −0.45
- log2 fold-change (colon, gene Ubald1): 0.67
- log2 fold-change (colon, gene Umad1): −0.44
- log2 fold-change (colon, gene Usp2): 0.51
- log2 fold-change (colon, gene Usp53): −0.34
- log2 fold-change (colon, gene Vasn): 0.62
- log2 fold-change (colon, gene Vsig1): −1.14
- log2 fold-change (colon, gene Vsig2): 0.69
- log2 fold-change (colon, gene Wdr6): 0.46
- log2 fold-change (colon, gene Wdr46-ps): 1.52
- log2 fold-change (colon, gene Wdr91): 0.64
- log2 fold-change (colon, gene Wfdc2): −0.85
- log2 fold-change (colon, gene Wfdc15b): 0.01
- log2 fold-change (colon, gene Wiz): 0.55
- log2 fold-change (colon, gene Xpr1): −0.33
- log2 fold-change (colon, gene Zbtb11): −0.33
- log2 fold-change (colon, gene Zfand5): −0.34
- log2 fold-change (colon, gene Zfp185): 2.32
- log2 fold-change (colon, gene Zfp503): 0.65
- log2 fold-change (colon, gene Zfp512b): 0.42
- log2 fold-change (colon, gene Zfp971): −0.46
- log2 fold-change (gene Abtb2 (Entrez 99382), downregulated genes in colon): −0.47
- log2 fold-change (gene Anln (Entrez 68743), downregulated genes in colon): −0.33
- log2 fold-change (gene Aoc1 (Entrez 76507), downregulated genes in colon): −0.40
- log2 fold-change (gene Apaf1 (Entrez 11783), downregulated genes in colon): −0.32
- log2 fold-change (gene Arrdc4 (Entrez 66412), downregulated genes in colon): −0.37
- log2 fold-change (gene Atp5h (Entrez 71679), downregulated genes in colon): −0.27
- log2 fold-change (gene BC055324 (Entrez 381306), downregulated genes in colon): −0.59
- log2 fold-change (gene Bcl6 (Entrez 12053), downregulated genes in colon): −0.41
- log2 fold-change (gene Bmp2k (Entrez 140780), downregulated genes in colon): −0.28
- log2 fold-change (gene Bzw1 (Entrez 66882), downregulated genes in colon): −0.24
- log2 fold-change (gene Calm1 (Entrez 12313), downregulated genes in colon): −0.21
- log2 fold-change (gene Calml4 (Entrez 75600), downregulated genes in colon): −0.27
- log2 fold-change (gene Ccnb1 (Entrez 268697), downregulated genes in colon): −0.38
- log2 fold-change (gene Chchd3 (Entrez 66075), downregulated genes in colon): −0.26
- log2 fold-change (gene Chml (Entrez 12663), downregulated genes in colon): −0.27
- log2 fold-change (gene Cib1 (Entrez 23991), downregulated genes in colon): −0.26
- log2 fold-change (gene Cmas (Entrez 12764), downregulated genes in colon): −0.27
- log2 fold-change (gene Cse1l (Entrez 110750), downregulated genes in colon): −0.25
- log2 fold-change (gene Cstf2 (Entrez 108062), downregulated genes in colon): −0.26
- log2 fold-change (gene Dlat (Entrez 235339), downregulated genes in colon): −0.24
- log2 fold-change (gene Fer1l6 (Entrez 631797), downregulated genes in colon): −0.31
- log2 fold-change (gene Galnt7 (Entrez 108150), downregulated genes in colon): −0.25
- log2 fold-change (gene Gfm2 (Entrez 320806), downregulated genes in colon): −0.26
- log2 fold-change (gene Glycam1 (Entrez 14663), downregulated genes in colon): −0.11
- log2 fold-change (gene Gm26448 (Entrez 115487256), downregulated genes in colon): −0.53
- log2 fold-change (gene Gna13 (Entrez 14674), downregulated genes in colon): −0.25
- log2 fold-change (gene Gne (Entrez 50798), downregulated genes in colon): −0.26
- log2 fold-change (gene Gsdmcl2 (Entrez 665769), downregulated genes in colon): −0.45
- log2 fold-change (gene H1f1 (Entrez 80838), downregulated genes in colon): −0.38
- log2 fold-change (gene H3c3 (Entrez 319148), downregulated genes in colon): −0.52
- log2 fold-change (gene H3f3a (Entrez 15078), downregulated genes in colon): −0.26
- log2 fold-change (gene Igkv4-63 (Entrez 628571), downregulated genes in colon): −0.04
- log2 fold-change (gene Itfg1 (Entrez 71927), downregulated genes in colon): −0.29
- log2 fold-change (gene Ivns1abp (Entrez 117198), downregulated genes in colon): −0.26
- log2 fold-change (gene Jpt1 (Entrez 15374), downregulated genes in colon): −0.32
- log2 fold-change (gene Lipo3 (Entrez 381236), downregulated genes in colon): −0.42
- log2 fold-change (gene Lrrc66 (Entrez 231296), downregulated genes in colon): −0.35
- log2 fold-change (gene Mctp2 (Entrez 244049), downregulated genes in colon): −0.31
- log2 fold-change (gene Mki67 (Entrez 17345), downregulated genes in colon): −0.34
- log2 fold-change (gene Mkks (Entrez 59030), downregulated genes in colon): −0.45
- log2 fold-change (gene Mkrn1 (Entrez 54484), downregulated genes in colon): −0.24
- log2 fold-change (gene Mrpl13 (Entrez 68537), downregulated genes in colon): −0.32
- log2 fold-change (gene Ncaph (Entrez 215387), downregulated genes in colon): −0.35
- log2 fold-change (gene Ndfip2 (Entrez 76273), downregulated genes in colon): −0.26
- log2 fold-change (gene Ostf1 (Entrez 20409), downregulated genes in colon): −0.26
- log2 fold-change (gene Oxct1 (Entrez 67041), downregulated genes in colon): −0.25
- log2 fold-change (gene Papolg (Entrez 216578), downregulated genes in colon): −0.38
- log2 fold-change (gene Pclaf (Entrez 68026), downregulated genes in colon): −0.38
- log2 fold-change (gene Pik3c3 (Entrez 225326), downregulated genes in colon): −0.32
- log2 fold-change (gene Plin2 (Entrez 11520), downregulated genes in colon): −0.30
- log2 fold-change (gene Ppip5k2 (Entrez 227399), downregulated genes in colon): −0.23
- log2 fold-change (gene Prps2 (Entrez 110639), downregulated genes in colon): −0.31
- log2 fold-change (gene Rasef (Entrez 242505), downregulated genes in colon): −0.30
- log2 fold-change (gene Rnf141 (Entrez 67150), downregulated genes in colon): −0.24
- log2 fold-change (gene Scml4 (Entrez 268297), downregulated genes in colon): −0.30
- log2 fold-change (gene Shcbp1 (Entrez 20419), downregulated genes in colon): −0.45
- log2 fold-change (gene Slc6a4 (Entrez 15567), downregulated genes in colon): −0.47
- log2 fold-change (gene Smim31 (Entrez 407795), downregulated genes in colon): −0.35
- log2 fold-change (gene St3gal4 (Entrez 20443), downregulated genes in colon): −0.34
- log2 fold-change (gene Stk17b (Entrez 98267), downregulated genes in colon): −0.43
- log2 fold-change (gene Tm9sf2 (Entrez 68059), downregulated genes in colon): −0.20
- log2 fold-change (gene Tmed7 (Entrez 66676), downregulated genes in colon): −0.24
- log2 fold-change (gene Tmprss4 (Entrez 214523), downregulated genes in colon): −0.26
- log2 fold-change (gene Tnfaip3 (Entrez 21929), downregulated genes in colon): −0.38
- log2 fold-change (gene Txndc16 (Entrez 70561), downregulated genes in colon): −0.28
- log2 fold-change (gene Uba7 (Entrez 74153), downregulated genes in colon): −0.31
- log2 fold-change (gene Upp1 (Entrez 22271), downregulated genes in colon): −0.52
- log2 fold-change (gene Yes1 (Entrez 22612), downregulated genes in colon): −0.26
- log2 fold-change (gene Zg16 (Entrez 69036), downregulated genes in colon): −0.30
- log2 fold-change (gene Zwilch (Entrez 68014), downregulated genes in colon): −0.52
